Measurements published in PubChem BioAssay AID540275 (National Center for Advancing Translational Sciences (NCATS), 2011).
Out of some 320,000 compounds screened, about 620 (0.19%) were called active. Inconclusive results, whose numbers are uncertain, are shown with a selection of clear calls. Cut-off read from the data, not from the text of the source: active = activation above about 80%; inconclusive = between about 30% and that limit; inactive = weaker than that.

Amino acid sequences for entries named in this document (tags omitted).
UniProt Q8NER1, whole entry, looked up: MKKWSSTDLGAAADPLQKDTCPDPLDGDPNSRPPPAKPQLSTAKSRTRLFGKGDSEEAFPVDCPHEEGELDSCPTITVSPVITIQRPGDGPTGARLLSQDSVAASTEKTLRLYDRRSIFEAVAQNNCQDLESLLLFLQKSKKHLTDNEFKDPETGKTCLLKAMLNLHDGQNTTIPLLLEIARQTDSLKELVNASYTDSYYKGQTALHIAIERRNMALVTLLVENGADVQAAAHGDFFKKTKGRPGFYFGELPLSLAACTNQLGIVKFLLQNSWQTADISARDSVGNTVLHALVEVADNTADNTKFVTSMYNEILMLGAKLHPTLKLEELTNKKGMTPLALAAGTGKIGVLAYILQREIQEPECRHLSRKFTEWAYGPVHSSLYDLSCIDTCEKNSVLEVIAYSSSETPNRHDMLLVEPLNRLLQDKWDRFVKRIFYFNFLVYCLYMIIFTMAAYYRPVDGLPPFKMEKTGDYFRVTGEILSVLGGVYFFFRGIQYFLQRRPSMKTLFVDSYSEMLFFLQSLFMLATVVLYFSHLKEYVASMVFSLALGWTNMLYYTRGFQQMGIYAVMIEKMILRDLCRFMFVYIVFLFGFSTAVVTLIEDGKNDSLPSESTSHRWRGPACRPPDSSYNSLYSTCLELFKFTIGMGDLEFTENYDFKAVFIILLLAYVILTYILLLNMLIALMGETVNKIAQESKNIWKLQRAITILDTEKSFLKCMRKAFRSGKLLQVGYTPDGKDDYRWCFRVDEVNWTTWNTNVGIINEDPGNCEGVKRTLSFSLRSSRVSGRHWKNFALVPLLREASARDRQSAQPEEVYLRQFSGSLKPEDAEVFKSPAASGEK

Target: Transient receptor potential cation channel subfamily V member 1 (Homo sapiens) (UniProt Q8NER1)
Experiment: HTS Assay for Compounds that Act as Agonists of the Vanilloid Receptor 1; note: 0% is about no effect
Conditions: TRPV1-expressing cells, Fluo-8 calcium influx, agonist mode; at 8.33 µM, hits give high values
In short: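 Fluo-8 calcium influx in TRPV1-expressing cells, kinetic read (ex 480/em 520 nm). Compound added and read 3 min for agonist activity, followed by capsaicin at EC20 final and 2 min further read for enhancement.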

Compound	activation
CN(C)c1ccc(/C=C/C(=O)c2ccc(O)cc2)cc1[N+](=O)[O-]	inconclusive: 37.4%
CN(C)c1ccc(/C=C/C(=O)c2cccc(Br)c2)cc1	active: 87.1%
COc1ccc(C(=O)Nc2ccc(Cl)cc2C(=O)NCc2ccco2)cc1OC	inactive: -4.27%
O=C(NNC(=O)c1ccccc1O)c1ccc(Br)cc1	inactive: 16.1%
CS(=O)(=O)c1ccccc1-c1nnc(NC(=O)c2ccc(S(=O)(=O)N3CCCC3)cc2)o1	inactive: -7.1%
Cc1ccc(NC(=O)c2ccc3c(c2)[nH]c(=O)n3C(C)C)cc1	inconclusive: 37.2%
COC(=O)c1ccc(C(=O)OC)c(NC(=O)CN2CCC(C)CC2)c1	inconclusive: 42.2%
Cc1ccc(C(=O)NCC(=O)OCc2c(F)cccc2Cl)cc1	inconclusive: 36%
O=C1NC(=Nc2ccccc2)/C(=C/c2ccco2)S1	inconclusive: 53.8%
CC1CCCN(C(=O)Cc2cn(Cc3cccc(Cl)c3)c3ccccc23)C1 (stereo unspecified)	inconclusive: 54.3%
CN(C)c1ccc(N=Cc2nc(-c3ccccc3)oc2OC(=O)c2cccc(Br)c2)cc1	inconclusive: 68.4%
FC(F)(F)c1cnc(NNC(=S)Nc2cccnc2)c(Cl)c1	inactive: 0.842%
CC1(C)Cc2c(C#N)c(N3CCN(C(=O)c4ccco4)CC3)nc(Cc3ccccc3)c2CO1	inconclusive: 49.3%
Cc1ccc(-c2csc(NC(=O)Cc3cccs3)n2)cc1C	inconclusive: 72.9%
Cc1cc(/C=C2\SC(=Nc3ccccc3)NC2=O)c(C)n1-c1ccc(S(N)(=O)=O)cc1	inactive: -3.88%
O=C(COC(=O)C1CSC2(c3ccc(F)cc3)CCC(=O)N12)NC(=O)NC1CCCC1 (stereo unspecified)	inactive: -0.322%
CCOC(=O)Cc1csc(NC(=S)NC(=O)c2ccc([N+](=O)[O-])cc2)n1	inactive: -2.18%
COc1cccc(CNn2c(-c3cccc(C)c3)nc3ccccc3c2=O)c1	inconclusive: 45.1%
Cc1cc2c(=O)oc(-c3ccccc3Br)nc2s1	inactive: 7.76%
C/C(N)=C(/C#N)C(=O)COC(=O)c1cccc2ccccc12	inconclusive: 39.7%
CCCCc1ccc(NC(=O)Nc2cc(C)nn2C)cc1	inconclusive: 62.2%
COCC(=O)Nc1nnc(-c2ccc(C(C)(C)C)cc2)s1	inconclusive: 33.6%
O=C(CCCOc1ccc(Cl)cc1)N1CCCCC1	active: 89.9%

Quoted at random: 4 compounds from above.
Compound	activation
COC(=O)c1ccc(C(=O)OC)c(NC(=O)CN2CCC(C)CC2)c1	inconclusive: 42.2%
FC(F)(F)c1cnc(NNC(=S)Nc2cccnc2)c(Cl)c1	inactive: 0.842%
CN(C)c1ccc(N=Cc2nc(-c3ccccc3)oc2OC(=O)c2cccc(Br)c2)cc1	inconclusive: 68.4%
CCOC(=O)Cc1csc(NC(=S)NC(=O)c2ccc([N+](=O)[O-])cc2)n1	inactive: -2.18%

Later entries.

Compound	activation
O=C(C1CCCN(Cc2ccc(Cl)cc2)C1)N1CCCCC1 (stereo unspecified)	inconclusive: 37.9%
COc1ccccc1C1=CC(=O)C[C@H](c2ccc(Cl)cc2)C1	inactive: 27.6%
N#Cc1nc(Cc2cccc3ccccc23)oc1NCc1ccc2c(c1)OCO2	inconclusive: 41%
Cc1ccc(S(=O)(=O)CCC(=O)Nc2ccccc2N2CCCC2)cc1	inconclusive: 31.3%
CC(C)CN(C(=O)COC(=O)c1cccnc1Cl)c1c(N)n(Cc2ccccc2)c(=O)[nH]c1=O	inactive: 3.68%
CCCCOc1ccc(-c2nnn(CCC(=O)N3CCOCC3)n2)cc1	inconclusive: 37.3%
Cc1ccc(S(=O)(=O)N(CC(=O)NCC2CCCO2)Cc2ccc(F)cc2)cc1 (stereo unspecified)	inconclusive: 43.4%
O=C(COc1ccccc1Br)Nc1ccc2c(c1)OCCCO2	inconclusive: 31.3%
COc1ccc(C(=O)N2CC(=O)Nc3ccc(F)cc3C2c2ccccc2)cc1 (stereo unspecified)	inconclusive: 37.8%
CC1=NN(c2ccccc2)C(=O)/C1=C\C=C1\N(C)c2ccccc2C1(C)C	inactive: 1.93%
COC(=O)C1=C(C)NC(=O)CC1c1ccccc1F (stereo unspecified)	inactive: -1.62%
O=C(NC(=O)c1cc(OCC(F)(F)F)ccc1OCC(F)(F)F)Nc1ccccc1	inconclusive: 56.5%
Cc1ccc(SCC(=O)Nc2nnc(-c3ccco3)o2)cc1	inactive: -1.69%
C#Cc1ccc(CN2CCN(CCc3ccccc3)C(CCO)C2)cc1 (stereo unspecified)	inactive: 2.26%
CCOP(=O)(OCC)c1nc(-c2cccc3ccccc23)oc1N1CCOCC1	inconclusive: 58.9%
O=C1CC2(CCN(C(=O)COc3ccc(Cl)cc3)CC2)Oc2ccccc21	inactive: -0.787%
N=C1SCC(=O)N1c1nc(-c2ccccc2)cs1	inactive: -1.84%
Cc1ccc2sc(N3CCN(C(=O)c4ccc([N+](=O)[O-])o4)CC3)nc2c1C	inactive: 28.3%
CCC(CC)NC(=O)Nc1ccccc1C	inactive: 2.55%
Cc1cccc(C)c1OCc1cc(C(=O)N2CC3C[C@@H]4CC2C[C@H](C3)C4)no1	inconclusive: 33.1%
COc1ccc(OCCCC(=O)Nc2ccc(N3CCCCC3)cc2)cc1	inconclusive: 34.7%
O=C(NC(c1ccccc1)c1ccccc1)N1CCN(CCO)CC1	inconclusive: 40.8%
O=C(Nc1cccc(F)c1)c1ccc2ncsc2c1	inconclusive: 78.2%

Compound	activation
Cc1ccc(C(=O)O/N=C/c2c(N3CCOCC3)n(C)c3ccccc23)cc1	inactive: 6.12%
Cc1c(O)ccc2c(CN(C)Cc3ccccc3)cc(=O)oc12	inconclusive: 49.4%
O=C(CSc1nc2ccccc2o1)N/N=C/c1ccc(O)c(O)c1	inconclusive: 30.1%
O=c1c2ccccc2c(/C=N/c2ncn[nH]2)c(O)n1Cc1ccccc1	inconclusive: 61.4%
CCN(CC)c1ccc(/C=N/NC(=O)OC)c(O)c1	inactive: 15.7%
CCOC(=O)c1ccc2nc(NC(=O)c3ccco3)sc2c1	inconclusive: 35.1%
N#Cc1cc(C(=O)c2cc(F)ccc2O)cn(-c2nccs2)c1=O	inconclusive: 69.7%
O=C(COC(=O)c1ccccc1Nc1ccccc1)NCc1ccco1	inconclusive: 62%
CCOc1ccc(-n2nnnc2SCC(=O)Nc2cccc(O)c2)cc1	inconclusive: 39.5%
O=C(N1CCN(Cc2ccccc2)CC1)C12CC3CC(CC(C3)C1)C2	inconclusive: 33.1%
CCOc1cc(CN2CCN(c3cccc(C(F)(F)F)c3)CC2)ccc1O	inconclusive: 41.7%
CCN(CC)C(=O)COC(=O)c1cc(-c2ccc(OC)cc2)nc2ccccc12	inconclusive: 51.9%
COc1ccc(N(C(=O)CNC(=O)c2cccs2)C(C(=O)NCC2CCCO2)c2ccccc2)cc1 (stereo unspecified)	inactive: 0.412%
CSCCC1NC2(C(=O)Nc3c(Cl)cccc32)[C@@H]2C(=O)N(C3CCCC3)C(=O)[C@H]12 (stereo partly specified)	inconclusive: 47.1%
O=C1N(Cc2ccc(F)cc2)CCN1c1ccc(F)cc1	inconclusive: 37.2%
O=C(Nc1nc2ccccc2s1)c1ccccc1	inconclusive: 64.8%
Cc1cc(F)ccc1S(=O)(=O)Nc1c(C)n(C)n(-c2ccccc2)c1=O	inactive: -3.72%
Cc1cc(NC(=O)CSCC(=O)N2CCN(c3cccc(C)c3C)CC2)no1	inconclusive: 71.2%
COC(=O)c1sccc1NC(=O)Nc1ccc(C(C)=O)cc1	inconclusive: 30.2%
CCOC(=O)/C(O)=C(\C#N)c1nc2ccccc2[nH]1	inactive: 1.59%
Cc1c(C(=O)Nc2ccc(Br)cc2)cnn1C	inconclusive: 64.8%
COc1ccccc1N(C)S(=O)(=O)c1ccc(C(=O)Nc2ccncc2)cc1	inconclusive: 57.7%
Cc1cccc(NC(=O)CSc2nc3ccccc3nc2N2CC(C)OC(C)C2)c1 (stereo unspecified)	inconclusive: 58.7%

Compound	activation
C=CCn1c(SCc2nc3c(c(=O)[nH]c(=O)n3CCCC)n2CCC)nnc1-c1ccccc1	inactive: 5.65%
O=C(C1CCCCC1)N1CCN(c2ccccc2F)CC1	inconclusive: 49.2%
O=S(=O)(NCc1ccccn1)c1ccc(Cl)c(C(F)(F)F)c1	inactive: 25.7%
Clc1cccc(/C(Cc2nc3ccccc3[nH]2)=N\Nc2ccccc2)c1	inconclusive: 43.1%
O=c1c(O)c(-c2cccs2)oc2ccccc12	inconclusive: 73.5%
CN(Cc1ccco1)C(=O)C1CCC(=O)N(CCc2cccc(F)c2)C1 (stereo unspecified)	inconclusive: 37.7%
O=C1CSC(c2ccc([N+](=O)[O-])cc2)N1Cc1ccccc1 (stereo unspecified)	inactive: 10.8%
CCN(c1ccccc1)S(=O)(=O)c1ccc(Cl)c(NC(=O)CN2CCCCCC2)c1	inconclusive: 30.8%
O=C(Nc1ccc2cn[nH]c2c1)c1c(Cl)cccc1Cl	inactive: -1.04%
CCN(CC)S(=O)(=O)c1ccc(Cl)c(NC(=O)COC(=O)/C=C/c2ccc(O)c(OC)c2)c1	inconclusive: 65.5%
O=C(Cn1cnc2c(cnn2-c2ccc(F)cc2)c1=O)N1CCN(c2ccccc2)CC1	inactive: 1.76%
COc1cc(S(=O)(=O)N2CCCN(C)CC2)ccc1NC(C)=O	inactive: -3.52%
CCCCc1ccc(NC(=O)c2ccc(NS(C)(=O)=O)cc2)cc1	inconclusive: 79.7%
O=C(NC(=O)c1ccccc1)Nc1ccccn1	inactive: 2.39%
Cn1c2ccc(F)cc2c2ncn(Cc3ccco3)c(=O)c21	inactive: -0.752%
Cc1ccc(Cn2c(Cc3ccccc3)nc3ccccc32)cc1	inconclusive: 31.4%
CCOC(=O)c1sc(NC(=O)COC(=O)CNC(=O)c2ccco2)c(C(=O)OCC)c1C	inconclusive: 36.3%
Fc1ccccc1Cc1nnc2n1N=C(c1ccc(Cl)cc1)CS2	inconclusive: 30.4%
CCCn1nnnc1NC(=O)c1ccc2ccccc2c1	inactive: -1.5%
CC(C)Oc1cccc(C(=O)C2CCCN(Cc3cnc(N4CCCC4)s3)C2)c1 (stereo unspecified)	inconclusive: 30.3%
CN1CCCC(CC2c3ccccc3Sc3ccccc32)C1 (stereo unspecified)	inactive: 11.9%
Cc1cccc(C)c1OCC(=O)NNC(=S)NC(=O)C1CC1	inactive: 0.794%
